# This is one part of the list.
# The chains behind the UniProt entries cited, without tags or fusion partners. Where a name states a change or a piece, a line headed by the entry shows the natural chain unless it says otherwise.
# UniProt Q13867: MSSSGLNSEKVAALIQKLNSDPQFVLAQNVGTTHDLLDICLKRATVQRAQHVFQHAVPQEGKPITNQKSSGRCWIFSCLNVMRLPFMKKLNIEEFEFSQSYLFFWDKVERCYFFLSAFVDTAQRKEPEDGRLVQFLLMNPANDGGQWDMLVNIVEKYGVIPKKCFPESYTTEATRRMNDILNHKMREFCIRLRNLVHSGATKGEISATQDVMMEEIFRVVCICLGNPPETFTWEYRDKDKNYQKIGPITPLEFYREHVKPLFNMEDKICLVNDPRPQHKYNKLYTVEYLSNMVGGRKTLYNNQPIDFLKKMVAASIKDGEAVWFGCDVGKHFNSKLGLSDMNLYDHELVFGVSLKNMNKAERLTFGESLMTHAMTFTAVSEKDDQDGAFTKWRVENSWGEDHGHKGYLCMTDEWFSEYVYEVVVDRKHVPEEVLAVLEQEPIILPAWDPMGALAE
# UniProt O15155: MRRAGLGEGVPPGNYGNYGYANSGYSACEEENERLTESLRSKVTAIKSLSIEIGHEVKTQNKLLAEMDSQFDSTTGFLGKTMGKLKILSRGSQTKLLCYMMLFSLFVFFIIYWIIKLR
# UniProt O75531: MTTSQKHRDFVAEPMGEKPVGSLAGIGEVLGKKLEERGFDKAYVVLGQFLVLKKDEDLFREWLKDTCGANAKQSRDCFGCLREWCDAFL
# UniProt O43505: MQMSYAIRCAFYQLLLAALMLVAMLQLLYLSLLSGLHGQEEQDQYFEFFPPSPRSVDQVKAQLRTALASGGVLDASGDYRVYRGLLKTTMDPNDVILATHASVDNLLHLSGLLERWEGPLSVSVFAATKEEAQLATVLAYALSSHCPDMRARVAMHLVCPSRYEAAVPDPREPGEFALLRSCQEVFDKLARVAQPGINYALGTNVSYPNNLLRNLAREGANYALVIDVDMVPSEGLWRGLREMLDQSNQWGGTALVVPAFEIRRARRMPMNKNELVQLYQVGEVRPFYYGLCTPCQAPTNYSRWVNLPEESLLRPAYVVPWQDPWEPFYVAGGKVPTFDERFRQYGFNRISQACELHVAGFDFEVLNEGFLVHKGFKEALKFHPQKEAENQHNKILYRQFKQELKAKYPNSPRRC
# UniProt Q9BXH1: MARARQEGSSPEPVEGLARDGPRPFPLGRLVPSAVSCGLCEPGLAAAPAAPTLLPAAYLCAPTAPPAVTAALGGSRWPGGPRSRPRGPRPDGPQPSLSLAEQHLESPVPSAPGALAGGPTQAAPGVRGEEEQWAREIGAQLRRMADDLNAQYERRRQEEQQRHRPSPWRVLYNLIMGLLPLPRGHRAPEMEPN
# UniProt Q8TD16, whole entry, looked up: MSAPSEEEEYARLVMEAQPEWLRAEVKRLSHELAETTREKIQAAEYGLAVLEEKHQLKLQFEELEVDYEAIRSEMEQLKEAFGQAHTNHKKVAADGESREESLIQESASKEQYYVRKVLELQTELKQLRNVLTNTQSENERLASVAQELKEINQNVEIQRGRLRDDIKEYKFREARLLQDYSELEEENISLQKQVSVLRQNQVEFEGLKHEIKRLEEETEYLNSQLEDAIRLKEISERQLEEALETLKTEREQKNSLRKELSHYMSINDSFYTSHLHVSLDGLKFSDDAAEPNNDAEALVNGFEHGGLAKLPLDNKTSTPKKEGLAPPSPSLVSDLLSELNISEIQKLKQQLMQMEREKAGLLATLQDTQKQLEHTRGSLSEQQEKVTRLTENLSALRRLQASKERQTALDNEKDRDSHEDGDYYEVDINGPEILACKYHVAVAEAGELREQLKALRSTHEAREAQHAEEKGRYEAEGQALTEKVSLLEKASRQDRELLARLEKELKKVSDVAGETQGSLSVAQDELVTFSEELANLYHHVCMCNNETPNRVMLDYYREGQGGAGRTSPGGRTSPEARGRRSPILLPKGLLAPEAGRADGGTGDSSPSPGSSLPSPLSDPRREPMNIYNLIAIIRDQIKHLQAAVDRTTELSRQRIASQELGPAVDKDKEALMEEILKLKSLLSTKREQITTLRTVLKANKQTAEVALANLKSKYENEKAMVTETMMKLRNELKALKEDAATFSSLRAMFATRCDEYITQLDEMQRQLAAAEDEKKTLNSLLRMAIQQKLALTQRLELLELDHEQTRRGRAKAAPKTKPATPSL
# UniProt O95817, whole entry, looked up: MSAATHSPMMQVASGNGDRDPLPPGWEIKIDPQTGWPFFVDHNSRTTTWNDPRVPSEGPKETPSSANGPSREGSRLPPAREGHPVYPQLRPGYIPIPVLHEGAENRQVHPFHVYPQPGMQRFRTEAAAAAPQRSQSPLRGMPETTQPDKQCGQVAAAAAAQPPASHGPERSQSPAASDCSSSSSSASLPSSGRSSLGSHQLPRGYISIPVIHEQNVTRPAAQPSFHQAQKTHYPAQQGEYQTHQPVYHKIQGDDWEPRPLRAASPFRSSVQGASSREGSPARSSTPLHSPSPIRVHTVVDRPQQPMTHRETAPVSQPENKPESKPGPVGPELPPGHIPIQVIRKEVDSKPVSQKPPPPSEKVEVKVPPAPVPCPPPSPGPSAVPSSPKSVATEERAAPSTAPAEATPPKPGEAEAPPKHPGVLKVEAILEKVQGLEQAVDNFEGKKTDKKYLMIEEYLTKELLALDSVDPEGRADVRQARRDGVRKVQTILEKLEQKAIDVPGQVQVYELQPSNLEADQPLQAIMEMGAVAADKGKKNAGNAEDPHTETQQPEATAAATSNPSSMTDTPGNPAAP
# UniProt O75934: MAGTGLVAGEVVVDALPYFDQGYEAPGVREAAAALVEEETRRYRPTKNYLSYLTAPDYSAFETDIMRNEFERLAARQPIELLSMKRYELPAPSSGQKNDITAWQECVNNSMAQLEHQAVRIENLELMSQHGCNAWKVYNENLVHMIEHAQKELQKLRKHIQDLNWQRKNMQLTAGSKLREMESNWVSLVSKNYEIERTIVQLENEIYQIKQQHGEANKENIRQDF
# UniProt Q6QNY1: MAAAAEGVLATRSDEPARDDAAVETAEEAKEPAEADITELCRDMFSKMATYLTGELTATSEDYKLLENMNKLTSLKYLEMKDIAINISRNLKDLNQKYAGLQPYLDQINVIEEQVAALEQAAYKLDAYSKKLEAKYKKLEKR
# UniProt P54687: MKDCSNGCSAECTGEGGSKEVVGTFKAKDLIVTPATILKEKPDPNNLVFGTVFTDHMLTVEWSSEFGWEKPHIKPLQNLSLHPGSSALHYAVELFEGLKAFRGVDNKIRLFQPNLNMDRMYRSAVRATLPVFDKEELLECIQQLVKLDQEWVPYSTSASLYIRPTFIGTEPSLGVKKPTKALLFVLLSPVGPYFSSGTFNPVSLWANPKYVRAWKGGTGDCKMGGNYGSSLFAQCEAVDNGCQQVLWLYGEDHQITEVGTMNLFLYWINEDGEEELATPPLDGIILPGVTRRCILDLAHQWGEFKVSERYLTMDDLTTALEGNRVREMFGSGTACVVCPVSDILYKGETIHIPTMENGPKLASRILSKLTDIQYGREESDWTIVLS
# UniProt Q13535: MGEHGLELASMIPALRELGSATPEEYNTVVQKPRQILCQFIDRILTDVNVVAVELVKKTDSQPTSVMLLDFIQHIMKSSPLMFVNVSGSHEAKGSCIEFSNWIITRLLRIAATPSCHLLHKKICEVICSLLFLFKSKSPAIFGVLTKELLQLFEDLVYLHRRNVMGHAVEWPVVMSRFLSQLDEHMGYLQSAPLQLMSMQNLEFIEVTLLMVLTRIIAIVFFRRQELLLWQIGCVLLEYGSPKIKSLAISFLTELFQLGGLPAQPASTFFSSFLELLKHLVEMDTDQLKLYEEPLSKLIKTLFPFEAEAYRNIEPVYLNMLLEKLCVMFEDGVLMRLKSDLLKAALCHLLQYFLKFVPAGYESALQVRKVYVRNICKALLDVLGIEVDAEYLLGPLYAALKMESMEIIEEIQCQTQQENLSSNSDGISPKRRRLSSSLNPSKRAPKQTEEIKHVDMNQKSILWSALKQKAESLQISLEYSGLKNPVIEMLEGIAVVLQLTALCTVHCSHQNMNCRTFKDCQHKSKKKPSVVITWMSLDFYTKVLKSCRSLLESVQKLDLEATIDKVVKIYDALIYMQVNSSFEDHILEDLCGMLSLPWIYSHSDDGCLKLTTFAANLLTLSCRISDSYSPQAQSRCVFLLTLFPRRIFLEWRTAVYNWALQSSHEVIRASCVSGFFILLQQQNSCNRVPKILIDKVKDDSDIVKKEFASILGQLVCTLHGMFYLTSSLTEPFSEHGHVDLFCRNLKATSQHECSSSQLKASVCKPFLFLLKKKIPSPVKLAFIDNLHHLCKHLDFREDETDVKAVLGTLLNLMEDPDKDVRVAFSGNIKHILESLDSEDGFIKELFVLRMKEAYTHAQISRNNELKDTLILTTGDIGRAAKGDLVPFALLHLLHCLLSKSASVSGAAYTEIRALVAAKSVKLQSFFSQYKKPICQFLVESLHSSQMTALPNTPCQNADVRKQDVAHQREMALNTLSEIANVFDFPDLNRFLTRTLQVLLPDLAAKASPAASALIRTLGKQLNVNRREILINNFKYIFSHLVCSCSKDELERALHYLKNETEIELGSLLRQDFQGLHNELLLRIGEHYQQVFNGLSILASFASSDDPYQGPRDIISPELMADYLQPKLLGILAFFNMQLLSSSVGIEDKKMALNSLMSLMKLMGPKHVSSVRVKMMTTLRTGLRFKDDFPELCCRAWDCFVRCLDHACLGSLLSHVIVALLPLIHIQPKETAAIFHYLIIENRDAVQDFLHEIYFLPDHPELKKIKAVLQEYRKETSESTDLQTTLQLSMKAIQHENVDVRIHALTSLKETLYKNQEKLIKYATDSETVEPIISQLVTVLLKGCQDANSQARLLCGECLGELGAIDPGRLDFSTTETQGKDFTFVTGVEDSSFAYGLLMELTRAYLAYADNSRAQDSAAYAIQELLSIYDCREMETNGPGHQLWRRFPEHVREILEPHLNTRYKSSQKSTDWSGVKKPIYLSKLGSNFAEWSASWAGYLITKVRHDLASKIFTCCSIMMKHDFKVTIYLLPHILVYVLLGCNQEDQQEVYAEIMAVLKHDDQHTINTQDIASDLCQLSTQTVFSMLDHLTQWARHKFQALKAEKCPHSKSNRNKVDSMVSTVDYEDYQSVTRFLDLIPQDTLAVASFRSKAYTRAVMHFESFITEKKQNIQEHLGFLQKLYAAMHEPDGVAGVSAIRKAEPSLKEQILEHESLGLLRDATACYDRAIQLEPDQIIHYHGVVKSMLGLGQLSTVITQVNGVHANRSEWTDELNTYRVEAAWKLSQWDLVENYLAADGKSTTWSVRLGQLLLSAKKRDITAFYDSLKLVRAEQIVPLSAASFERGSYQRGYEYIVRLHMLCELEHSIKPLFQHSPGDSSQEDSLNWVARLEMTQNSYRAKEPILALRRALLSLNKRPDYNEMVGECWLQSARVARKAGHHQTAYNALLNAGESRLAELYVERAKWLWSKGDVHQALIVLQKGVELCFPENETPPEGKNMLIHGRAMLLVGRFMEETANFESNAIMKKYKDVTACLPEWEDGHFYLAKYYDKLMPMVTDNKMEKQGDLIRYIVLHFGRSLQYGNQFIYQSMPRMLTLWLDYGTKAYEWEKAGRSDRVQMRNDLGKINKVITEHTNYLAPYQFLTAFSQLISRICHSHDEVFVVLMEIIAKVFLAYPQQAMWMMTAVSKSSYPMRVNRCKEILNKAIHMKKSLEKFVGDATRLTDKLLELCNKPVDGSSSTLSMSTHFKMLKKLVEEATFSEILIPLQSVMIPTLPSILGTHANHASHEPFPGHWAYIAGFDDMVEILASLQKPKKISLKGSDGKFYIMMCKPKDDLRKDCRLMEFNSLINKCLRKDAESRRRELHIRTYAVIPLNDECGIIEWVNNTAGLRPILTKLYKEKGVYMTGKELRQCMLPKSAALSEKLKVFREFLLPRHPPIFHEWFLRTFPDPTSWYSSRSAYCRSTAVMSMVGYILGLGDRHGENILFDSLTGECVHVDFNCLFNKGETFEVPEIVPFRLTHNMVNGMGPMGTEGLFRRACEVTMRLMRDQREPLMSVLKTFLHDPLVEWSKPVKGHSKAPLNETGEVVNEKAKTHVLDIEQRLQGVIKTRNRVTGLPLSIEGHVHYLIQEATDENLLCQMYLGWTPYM
# UniProt Q9BXK5, whole entry, looked up: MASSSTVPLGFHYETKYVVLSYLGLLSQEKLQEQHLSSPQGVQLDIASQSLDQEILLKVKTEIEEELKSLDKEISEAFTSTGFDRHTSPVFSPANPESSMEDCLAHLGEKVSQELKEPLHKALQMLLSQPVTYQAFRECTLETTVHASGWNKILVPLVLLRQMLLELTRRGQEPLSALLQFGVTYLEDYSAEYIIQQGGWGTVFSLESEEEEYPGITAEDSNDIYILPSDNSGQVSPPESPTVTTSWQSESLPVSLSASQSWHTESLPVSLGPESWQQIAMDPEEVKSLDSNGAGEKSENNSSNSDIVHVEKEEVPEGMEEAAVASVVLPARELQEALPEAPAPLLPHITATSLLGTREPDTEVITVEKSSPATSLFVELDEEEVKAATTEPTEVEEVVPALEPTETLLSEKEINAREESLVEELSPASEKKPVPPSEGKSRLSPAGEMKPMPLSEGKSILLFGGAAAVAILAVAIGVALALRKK
# Legend:
# Test in all cases: log2 fold change, soluble protein after heating vs DMSO (PISA); higher = thermal stabilisation; K562 cells, 10 uM, 30 min; active = over 0.2 and 3.5 SD of the protein, either way, in both replicates (recomputed)
# [1] = compound: C1=CC=C(C=C1)[C@H](COC2=CC3=C(C=C2)NC(=O)N3)NC(=O)C4=CC=CN(C4=O)CC5=CC(=C(C=C5)F)F
# How it was run: (§1)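 K562 cells at 2×10^6 cells/mL were exposed to 10 μM compound for 30 min, then aliquots were heated for 3 min across 48°C-58°C, pooled, and extracted in PBS containing 0.5% NP-40 at 4°C. The supernatant after 21,000xg for 90 min was taken as soluble protein and measured by TMTpro 16plex LC-MS/MS with channel sums equalised. Thermal stability is reported relative to control samples, with values from duplicates. Fold changes are given on a log2 scale.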
# [2] = compound: CC1=C(SC2=C1C(=N[C@H](C3=NN=C(N32)C)CC(=O)N)C4=CC=C(C=C4)Cl)C
# How it was run: as §1
# [3] = compound: CC1=C2C(=CC=C1)N=C(N(C2=O)C3=CC=CC=C3C)CN4C=NC5=C(N=CN=C54)N
# How it was run: as §1
# [4] = compound: Cc1sc2c(c1C)C(c1ccc(Cl)cc1)=N[C@@H](CC(=O)OC(C)(C)C)c1nnc(C)n1-2
# How it was run: as §1
# [5] = compound: c1ccc([C@@H]2C[C@H]2NC2CCNCC2)cc1
# How it was run: as §1
Target,log2 fold change [1],log2 fold change [2],log2 fold change [3],log2 fold change [4],log2 fold change [5]
BCL9L (UniProt Q86UU0),inactive: 0.001,inactive: -0.028,inactive: 0.019,inactive: 0.051,inactive: 0.05
BLMH (UniProt Q13867),inactive: -0.001,inactive: -0.047,inactive: -0.099,inactive: 0.024,inactive: 0.059
BAG6 isoform 3 (UniProt P46379),inactive: 0.004,inactive: 0.066,inactive: 0.019,inactive: 0.043,inactive: -0.023
BNIP2 (UniProt J3KN59),inactive: 0.076,inactive: 0.031,inactive: 0.016,inactive: -0.003,inactive: -0.04
BRD4 (UniProt O60885),inactive: -0.116,active: 2.22,inactive: 0.141,active: 1.99,inactive: 0.029
ATRN (UniProt O75882),inactive: -0.011,inactive: -0.031,inactive: 0.027,inactive: -0.055,inactive: 0.006
BAHCC1 (UniProt Q9P281),inactive: -0.126,inactive: -0.064,inactive: 0.273,inactive: 0.164,inactive: -0.024
BIRC2 (UniProt Q13490),inactive: -0.036,inactive: 0.035,inactive: 0.2,inactive: 0.042,inactive: -0.054
BET1 (UniProt O15155),inactive: 0.036,inactive: 0.075,inactive: 0.06,inactive: -0.052,inactive: 0.004
B4GALT3 (UniProt O60512),inactive: 0.046,inactive: 0.088,inactive: 0.002,inactive: 0.026,inactive: 0.173
BAG1 (UniProt Q99933),inactive: 0.006,inactive: 0.036,inactive: 0.03,inactive: -0.035,inactive: 0.053
BANF1 (UniProt O75531),inactive: -0.064,inactive: 0.11,inactive: 0.097,inactive: -0.132,inactive: -0.08
BCKDK (UniProt O14874),inactive: 0.061,inactive: -0.099,inactive: -0.028,inactive: 0.034,inactive: -0.083
B4GAT1 (UniProt O43505),inactive: 0.195,inactive: 0.089,inactive: 0.013,inactive: 0.094,inactive: 0.014
BAG2 (UniProt O95816),inactive: 0.022,inactive: -0.101,inactive: -0.17,inactive: 0.148,inactive: 0
BORCS6 (UniProt Q96GS4),inactive: 0,inactive: 0.053,inactive: -0.005,inactive: -0.008,inactive: -0.014
BLM (UniProt P54132),inactive: -0.005,inactive: 0.117,inactive: 0.101,inactive: -0.044,inactive: 0.005
BCOR (UniProt Q6W2J9),inactive: 0.042,inactive: -0.049,inactive: 0.318,inactive: 0.135,inactive: 0.055
BBC3 (UniProt Q9BXH1),inactive: 0.046,inactive: 0.026,inactive: 0.203,inactive: -0.049,inactive: -0.039
AZGP1 (UniProt P25311),inactive: -0.047,inactive: 0.117,inactive: -0.165,inactive: -0.487,inactive: -0.186
BAG5 isoform 2 (UniProt Q9UL15),inactive: -0.099,inactive: 0.062,inactive: 0,inactive: -0.025,inactive: -0.067
BCLAF1 (UniProt Q9NYF8),inactive: 0.031,inactive: 0.027,inactive: -0.118,inactive: -0.013,inactive: 0.047
B4GALT1 (UniProt P15291),inactive: 0.034,inactive: 0.057,inactive: -0.065,inactive: -0.022,inactive: -0.042
BICD2 isoform 2 (UniProt Q8TD16),inactive: -0.017,inactive: 0,inactive: 0.02,inactive: -0.01,inactive: 0.005
B3GLCT (UniProt Q6Y288),inactive: 0.015,inactive: -0.025,inactive: -0.051,inactive: -0.004,inactive: 0
BOLA2 (UniProt Q9H3K6),inactive: -0.014,inactive: 0.115,inactive: 0.081,inactive: -0.042,inactive: -0.031
B4GALNT1 (UniProt Q00973),inactive: -0.029,inactive: -0.068,inactive: -0.001,inactive: -0.102,inactive: -0.062

Target,log2 fold change [1],log2 fold change [2],log2 fold change [3],log2 fold change [4],log2 fold change [5]
BAG3 (UniProt O95817),inactive: 0.036,inactive: 0.03,inactive: 0.031,inactive: 0.008,inactive: 0.016
BCCIP (UniProt Q9P287),inactive: -0.044,inactive: -0.018,inactive: 0,inactive: -0.037,inactive: -0.062
BICD1 (UniProt Q96G01),inactive: -0.091,inactive: 0.057,inactive: 0.088,inactive: 0.024,inactive: -0.053
BAX isoform 2 (UniProt Q07812),inactive: -0.034,inactive: 0.011,inactive: 0.018,inactive: -0.032,inactive: -0.008
BCKDHB (UniProt P21953),inactive: -0.076,inactive: -0.066,inactive: 0.074,inactive: -0.065,inactive: 0.089
BSCL2 isoform 4 (UniProt Q96G97),inactive: -0.07,inactive: 0.106,inactive: -0.084,inactive: 0.027,inactive: -0.127
BCAS1 (UniProt O75363),inactive: -0.022,inactive: 0.047,inactive: -0.117,inactive: 0.482,inactive: 0.16
BCKDHA (UniProt P12694),inactive: -0.056,inactive: -0.001,inactive: 0.026,inactive: -0.039,inactive: -0.016
BCAS2 (UniProt O75934),inactive: 0.021,inactive: 0.027,inactive: 0.087,inactive: -0.132,inactive: -0.022
BLOC1S4 (UniProt Q9NUP1),inactive: -0.032,inactive: 0.028,inactive: 0.025,inactive: -0.029,inactive: -0.022
ATXN2L (UniProt Q8WWM7),inactive: -0.003,inactive: -0.009,inactive: -0.013,inactive: 0.012,inactive: 0.009
BLOC1S2 (UniProt Q6QNY1),inactive: -0.03,inactive: 0.03,inactive: 0.11,inactive: -0.046,inactive: -0.024
BCAP29 isoform 2 (UniProt Q9UHQ4),inactive: -0.017,inactive: 0.029,inactive: 0.035,inactive: -0.008,inactive: 0.032
ATXN3 isoform 1 (UniProt P54252),inactive: -0.012,inactive: 0.001,inactive: 0.118,inactive: -0.068,inactive: 0
BCAT1 (UniProt P54687),inactive: 0.009,inactive: 0.026,inactive: 0.014,inactive: -0.009,inactive: 0.026
B4GALT7 (UniProt Q9UBV7),inactive: -0.011,inactive: 0.037,inactive: 0.036,inactive: -0.044,inactive: 0.05
ATR (UniProt Q13535),inactive: -0.045,inactive: 0.025,inactive: 0.107,inactive: -0.022,inactive: -0.079
BLOC1S1 (UniProt P78537),inactive: -0.028,inactive: 0.075,inactive: 0.026,inactive: -0.083,inactive: -0.032
BRCC3 (UniProt P46736),inactive: 0.019,inactive: -0.019,inactive: 0.033,inactive: 0.028,inactive: 0.038
BMS1 (UniProt Q14692),inactive: 0.075,inactive: -0.225,inactive: -0.167,inactive: 0.132,inactive: -0.011
BRIP1 (UniProt Q9BX63),inactive: 0.042,inactive: -0.005,inactive: 0,inactive: -0.042,inactive: 0.122
BOP1 (UniProt Q14137),inactive: 0.096,inactive: -0.099,inactive: 0.01,inactive: -0.036,inactive: -0.01
BRK1 isoform 2 (UniProt Q8WUW1),inactive: 0.018,inactive: -0.018,inactive: 0.025,inactive: -0.055,inactive: -0.013
BMP2K (UniProt Q9NSY1),inactive: 0.015,inactive: 0,inactive: -0.018,inactive: 0.035,inactive: -0.001
BABAM1 (UniProt Q9NWV8),inactive: 0.043,inactive: -0.006,inactive: -0.063,inactive: -0.001,inactive: 0.032
BCL2L13 (UniProt Q9BXK5),inactive: -0.035,inactive: 0.03,inactive: 0.033,inactive: -0.006,inactive: -0.005

# Quoted from the listing:
# log2 fold change [5], BCAS1 (UniProt O75363) reads inactive: 0.16
# log2 fold change [1], BRCC3 (UniProt P46736) reads inactive: 0.019

# Reference: the supplement of paper PMC10849652
